Laboratory results reported in paper PMC8220817.

Chains of the proteins cited; added tags and fusions are not shown.
UniProt P42224: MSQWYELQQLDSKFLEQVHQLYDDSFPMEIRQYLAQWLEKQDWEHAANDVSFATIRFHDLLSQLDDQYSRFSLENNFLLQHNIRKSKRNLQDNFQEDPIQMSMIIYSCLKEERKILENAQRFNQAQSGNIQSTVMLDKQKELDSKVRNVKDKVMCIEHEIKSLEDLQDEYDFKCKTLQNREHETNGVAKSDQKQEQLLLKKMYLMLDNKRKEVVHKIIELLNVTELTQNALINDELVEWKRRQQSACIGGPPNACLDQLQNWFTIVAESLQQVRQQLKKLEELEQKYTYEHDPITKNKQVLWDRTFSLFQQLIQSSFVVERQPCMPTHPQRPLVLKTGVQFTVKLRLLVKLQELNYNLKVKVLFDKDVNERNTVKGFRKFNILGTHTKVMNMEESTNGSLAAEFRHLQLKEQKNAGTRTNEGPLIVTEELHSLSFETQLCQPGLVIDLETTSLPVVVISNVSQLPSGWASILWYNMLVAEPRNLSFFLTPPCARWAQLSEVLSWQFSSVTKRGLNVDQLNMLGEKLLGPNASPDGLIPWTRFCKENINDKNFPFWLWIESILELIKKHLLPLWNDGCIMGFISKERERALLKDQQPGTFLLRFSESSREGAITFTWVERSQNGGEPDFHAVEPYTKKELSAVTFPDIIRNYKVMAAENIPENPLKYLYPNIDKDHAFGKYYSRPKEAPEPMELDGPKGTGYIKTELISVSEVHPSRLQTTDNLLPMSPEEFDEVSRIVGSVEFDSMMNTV

Target: T1, LpCat1 (lysophosphatidylcholine acyltransferase 1) (human) (UniProt Q8NF37)
T1 sequence: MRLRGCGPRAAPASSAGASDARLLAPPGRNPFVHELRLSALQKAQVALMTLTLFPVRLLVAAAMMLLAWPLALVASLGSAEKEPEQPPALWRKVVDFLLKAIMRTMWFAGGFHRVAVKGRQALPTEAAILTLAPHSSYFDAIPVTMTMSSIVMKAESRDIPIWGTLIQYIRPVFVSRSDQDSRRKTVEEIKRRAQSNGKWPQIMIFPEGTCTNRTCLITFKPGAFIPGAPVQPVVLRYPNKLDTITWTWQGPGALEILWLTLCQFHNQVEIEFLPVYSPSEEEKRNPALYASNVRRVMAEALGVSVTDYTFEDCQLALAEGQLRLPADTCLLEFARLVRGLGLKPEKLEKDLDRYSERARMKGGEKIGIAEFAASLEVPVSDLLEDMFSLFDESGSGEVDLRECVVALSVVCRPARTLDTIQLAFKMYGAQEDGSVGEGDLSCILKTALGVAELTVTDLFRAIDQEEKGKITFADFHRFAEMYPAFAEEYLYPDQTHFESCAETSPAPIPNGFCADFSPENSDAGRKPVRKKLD
Assay: affinity purification with mass spectrometry; IP with anti-LpCat1 antibody (1 ug) from cell lysate (1 mg) of Huh7 cells stably transfected with LpCat1 overexpression or null control vector, overnight at 4 C; Protein A/G Sepharose beads 2 h; SDS-PAGE, Coomassie bands analysed by LC/MS

binding: binds
Substance: STAT1 (from UniProt P42224 1-750)

These are yes or no findings as the source states them, for the method shown. In cells and extracts the contact can be indirect. Here binding means that the protein was enriched with, or labelled near, the bait; the list need not be complete.
